Measurements as given in US20150110792A1 (Biogen, published 2015).
Results are given in words; binding and its absence hold for the method and conditions named. Some results given as binding are weak or reduced against the parent protein; the word gives no strength.

Legend:
[1] = molecular target: T1, African Green monkey TIM-1 on the kidney cell line CCL-70 (African Green monkey) (UniProt O46598); test: flow cytometry on African Green monkey CCL-70 cells
T1 sequence (looked up): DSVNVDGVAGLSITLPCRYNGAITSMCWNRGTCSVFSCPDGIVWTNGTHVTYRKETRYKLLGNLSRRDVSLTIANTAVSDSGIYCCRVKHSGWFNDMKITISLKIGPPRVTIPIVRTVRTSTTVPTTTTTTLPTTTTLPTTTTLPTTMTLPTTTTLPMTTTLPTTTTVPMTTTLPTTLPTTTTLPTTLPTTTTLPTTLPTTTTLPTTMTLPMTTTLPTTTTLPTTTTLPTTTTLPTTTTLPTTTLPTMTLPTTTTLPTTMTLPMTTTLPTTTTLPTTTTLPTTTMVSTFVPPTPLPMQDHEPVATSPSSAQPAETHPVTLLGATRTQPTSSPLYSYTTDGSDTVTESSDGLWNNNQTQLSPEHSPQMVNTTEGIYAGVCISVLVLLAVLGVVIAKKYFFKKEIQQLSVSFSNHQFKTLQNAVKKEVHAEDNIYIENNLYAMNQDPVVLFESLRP

[2] = molecular target: T1, African Green monkey TIM-1 on the kidney cell line CCL-70 (African Green monkey); test: staining of cells that carry the target, compared across the anti-human TIM-1 panel
[3] = molecular target: T1, African Green monkey TIM-1 on the kidney cell line CCL-70 (African Green monkey); test: flow cytometry on CCL-70 African Green monkey kidney cells, histograms at four antibody concentrations

Measured: binding

B1: monoclonal antibody ARD5 (antibody, mouse IgG1, kappa, V domains shown)
VH: QVQLQQSGAELVRPGTSVKVSCKASGYVFTNYWIEWIKQRPGQGLEWIGVMNPGSGETTYNEKFKGKATLTADKSSSTAYMQLSSLTSVDSAVYFCARDHDRDYYAMDYWGQGTSVTVSS
VL: EIQMTQSPSSMSASLGDTITITCQATQDIFKNLNWYQQKPGKPPSLLIYYATELAEGVPSRFSGSGSGSDYSLTISNLESEDFAAYYCLQFFEFPFTFGSGTKLEMKR
notes: Murine IgG1/kappa hybridoma antibody (ATCC PTA-12195); also called ARD5.12; muARD5
binds: [1] | [2] | [3]
